From ChEMBL document CHEMBL3988442, “University of Dundee, Small-Polar-MMV Screening Library” (2021).

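Phenotypic screen: M. tuberculosis growth, glucose 7H9 medium, 3 days; the read-out is not stated. Compounds at 50 µM. The record gives no direction; compounds that gave an IC50 in retests scored well above the rest, so higher reads as more growth inhibition. About 69,000 compounds were tested under these conditions; 1.1% (about 760) showed 50% or more at least once.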

Each number is a percent effect as filed.
The record does not define 0% and 100%; most values in the screen are far below 50% and negative numbers occur (in some assays of this library far below -100).
This is an unselected part of the compounds tested.
Two or more numbers in one place are separate tests of the same structure; such repeats can differ widely.

compound,effect
CC(C)CN1CCC2(CCCNC2)C1=O.Cl (stereo not shown),25.79%
[H][C@]12CCN(c3cc(OC)ncn3)CC[C@]1([H])N(C)CCO2,24.23%
COCc1noc(CN2CCCCC2CCc2cccs2)n1 (stereo not shown),4.52% & 18.49%
CC(C)NC(=O)CCNC(=O)Nc1cnn(-c2ccccc2F)c1,10.36% & -2.199%
Cc1nc2c(c(NCC(c3cccnc3)N3CCOCC3)n1)CCNC2 (stereo not shown),-18.14%
CN1C(=O)C(C)(C)COc2cc(NS(=O)(=O)c3ccccc3F)ccc21,-2.94%
CC(C)n1cnnc1CN(C)C(=O)c1ccccc1N1CCOCC1,-8.125%
COc1ccc(C(C)NC(=O)C2CCN(S(C)(=O)=O)CC2)cc1C (stereo not shown),-10.11%
Cc1nnc(CN(CCc2ccccc2)C2CCN(C)CC2)s1,-9.875% & -2.7%
Cc1cc(CN(C)C2CCCN(Cc3noc(C)n3)C2)on1 (stereo not shown),1.017%
O=C1CCc2ccccc2N1CCCn1cnnn1,23.17%
CC(C)c1nc(C2CCCN2CC(=O)Nc2ccc(Cl)cn2)no1 (stereo not shown),-21.18%
CN(Cc1nnc2n1CCC2)C(=O)CCc1ccc2c(c1)OCO2,1.628%
Cc1c[nH]c(CN2CCCCC2CCN(C)C)c(C)c1=O (stereo not shown),3.972% & -6.067%
CC(C)C(=O)Nc1ccc2c(c1)ncn2CC(=O)NCCN(C)C,16.71%
Cn1c(CN2CCCC(N3CCCCCC3)C2)cc(=O)n(C)c1=O (stereo not shown),33.54%
CCOC(=O)C1CCN(C(=O)c2cnn(-c3ccccc3F)c2N)CC1,-3.547%
CC(C)S(=O)(=O)N1CCC(Cc2cccc(C(=O)O)c2)C1 (stereo not shown),8.616%
[H][C@@]12CC[C@@]([H])(C1)N(CCC(=O)N1CCN(c3cc(C)cc(C)c3)C(=O)C1)C2,0.4272% & -2.899%
Cc1cc(C)c2nc(C)c(C(=O)N3CCC(N4CCCC4)CC3)cc2c1,4.348%
O=C(c1ccc(Cl)cc1)N1CCC(N2CCCOC2=O)CC1,18.17%
COc1ccccc1OCCN1CCCC(c2cc(C(N)=O)[nH]n2)C1 (stereo not shown),1.835%
CC(c1cc(F)ccc1F)N(C)Cc1nc2c(cnn2C)c(=O)[nH]1 (stereo not shown),-31.96%
CC(NC(=O)CN1CCN(c2cccc(Cl)c2)CC1)c1ccco1 (stereo not shown),38.71%
Cc1nc(-c2cccs2)ccc1C(=O)N1CCN(CCO)CC1,-30.62%
N#Cc1c(N)nc2c(c1C1CCOC1)CCc1cc(O)ccc1-2 (stereo not shown),-12.17%
COc1cccc(C(NCc2ccc(SC)cc2)c2nccn2C)c1 (stereo not shown),-7.641%
CC(C)n1nc2c(cc1=O)CN(c1nc3ccccc3s1)CC2,30.3%
Cc1cc(NCCN)nc(-c2ccccc2O)n1,102.1% & 35.74%
c1cc2ccc(N3CCN(Cc4ccc5c(c4)OCO5)CC3)nc2[nH]1,4.198%
CC(C)n1cc(C(=O)N2CCC(n3cc(C(C)(C)C)nn3)CC2)cn1,8.872%
CC(C)c1nccn1C1CCCN(C(=O)CCNS(C)(=O)=O)C1 (stereo not shown),3.56%
COc1cc(CNC(=O)C(C)SC)cc(Br)c1OC (stereo not shown),27.06%
c1cncc(CN(Cc2ccc3c(c2)OCCO3)CC2CCCO2)c1 (stereo not shown),2.325%
O=C(NC1CCCN(c2ccc(OC(F)F)cc2)C1)c1cnc[nH]1 (stereo not shown),5.911%
Cc1ccc(S(=O)(=O)Nc2ccc(N3CCSCC3)c(C(=O)O)c2)s1,-25.69%
CC1CCN(C(=O)C(C)n2cc(Br)cn2)CC1 (stereo not shown),19.7%
C[S+]([O-])CCCNCc1cc(F)ccc1Br (stereo not shown),-5.953% & 1.393%
CCOCCN1CCN(C(C)c2nc(C3CC3)no2)CC1 (stereo not shown),-38.33%
O=C(O)C(F)(F)F.[H][C@@]12C[C@@H](Oc3ccc(C)cc3)CN1CCN(C(=O)c1cnccn1)C2,-8.934% & 2.665%
CCNC(=O)N(C)C(c1cccc(F)c1)c1ccccn1 (stereo not shown),-0.7389%
[H][C@@]12CCN(S(C)(=O)=O)[C@]1([H])CC[C@@H](c1nnc(C)o1)O2,-35.04%
Cc1ccc(F)cc1C(=O)N1CCN(S(C)(=O)=O)[C@@H](C)C1,-13.88%
Cc1cnn(CCNCC(=O)N2CCN(c3ccccn3)CC2)c1,-10.75%
COCCN1CCC(c2cncc(-c3cccc(Cl)c3)n2)CC1,15%
Cc1ccc(CC(=O)N2CCCN(Cc3nccn3C)CC2)cn1,-10.14%
O=C(O)c1cc(S(=O)(=O)N2CCOc3ccccc32)ccc1Br,-20.45%
CN(C)CCCNC(=O)C(c1cccc(F)c1)N(C)C (stereo not shown),-17.7%
Cn1cc(C2CC3(CCN(C(=O)c4cccs4)CC3)NC2=O)cn1 (stereo not shown),-0.1962% & -0.8246%
CC1CCN(CCNC(=O)C(C)n2cncn2)CC1 (stereo not shown),6.263%
Nc1ncc(-c2ccc(F)cc2)c(C2CCCNC2)n1 (stereo not shown),0.2266%
O=C1CC(c2ccsc2)c2sc(C(=O)O)c(-c3ccc(F)cc3)c2N1 (stereo not shown),-24.49%
CCc1cc(N(C)Cc2ccncn2)n2nc(C)c(C)c2n1,77.46%
CCc1cc(NCCCNS(C)(=O)=O)nc(-c2ccccn2)n1,-9.752%
CCC1CN(Cc2nnc(C3CC3)o2)CCC(=O)N1Cc1ccccc1 (stereo not shown),-23.56%
CNc1nc(C)cc(NC2CCCN(C3Cc4ccccc4C3)C2)n1 (stereo not shown),9.362% & 22.91%
CC(=O)N(C)Cc1ccccc1NCc1c(C)cccc1C,25.14%
COc1cc(-n2cccc2)c(Cl)cc1C(N)=O,-31.13%
CC1CCCCN1C(=O)c1nc2c(n1C(C)C)CCN(C)C2.O=C(O)C(F)(F)F (stereo not shown),-3.012% & 18.14%
Cl.NC(=O)COc1ccc(CNCc2ccc(F)cc2F)cc1,-0.0726% & 11.81%
Cc1cnc(C(=O)N2CCC3(CCCN(c4nncs4)C3)C2)cn1 (stereo not shown),-2.977%
O=C(O)C(F)(F)F.[H][C@@]12CN(C(=O)c3ccco3)C[C@]1([H])C(=O)N(Cc1cccc(C)n1)C2,14.39%
CC1(c2cc[nH]n2)CCN(C(=O)c2ccc(Cl)cc2)CC1,13.25%
COc1ccc(Oc2nccc3occc23)cc1CN1CCCC1,22.24%
CC(C)(C)c1cnc(CN2CCCS2(=O)=O)o1,-16.06%
O=C(O)C(F)(F)F.[H][C@@]12COC[C@]1(CNS(C)(=O)=O)CN(CCc1ccccc1)C2,11.47%
Cc1nc(SCC(=O)Nc2ccc(C(N)=O)cc2)c(C#N)c(C)c1C,-16.85%
CCCc1noc(CN2CCCC2c2c(C)nn(C)c2OC)n1 (stereo not shown),-7.891%
CCOC(=O)N1CCC(N2Cc3ncccc3C2=O)CC1,-8.989%
COc1ccccc1C1(C(=O)N2CCCC(c3cc(C)[nH]n3)C2)CC1 (stereo not shown),-0.1861%
NC(=O)C1CCCN(S(=O)(=O)c2cnn(-c3ccccc3)c2)C1 (stereo not shown),-20.28%
CSCc1noc(CNS(=O)(=O)c2cccc(C(=O)NC3CC3)c2)n1,-43.79%
CNc1cc(C)nc(N2C[C@H](C3CC3)[C@@H](N)C2)n1,9.983%
FC(F)(F)c1nc(NC2CCCC2)c2ccccc2n1,11.38%
O=C(O)c1ccc2c(c1)C1(CCCCC1)CN2C(=O)c1cccs1,-31.07% & -0.03475%
NC(=O)c1cc(C2CCCN(CCOc3cccc(F)c3)C2)n[nH]1 (stereo not shown),-14.58%
Br.Cc1cc(C)c(N(CC(O)CNCc2ccccc2)S(C)(=O)=O)c(C)c1 (stereo not shown),23.53%
Cc1cnn(CCNCc2cccnc2)c1,-13.72%

Repeated from the top, 6 entries:

{"compound": "CC(C)CN1CCC2(CCCNC2)C1=O.Cl", "stereo": "stereo not shown", "effect": 25.79}
{"compound": "[H][C@]12CCN(c3cc(OC)ncn3)CC[C@]1([H])N(C)CCO2", "effect": 24.23}
{"compound": "COCc1noc(CN2CCCCC2CCc2cccs2)n1", "stereo": "stereo not shown", "effect": "4.52 & 18.49"}
{"compound": "CC(C)NC(=O)CCNC(=O)Nc1cnn(-c2ccccc2F)c1", "effect": "10.36 & -2.199"}
{"compound": "Cc1nc2c(c(NCC(c3cccnc3)N3CCOCC3)n1)CCNC2", "stereo": "stereo not shown", "effect": -18.14}
{"compound": "CN1C(=O)C(C)(C)COc2cc(NS(=O)(=O)c3ccccc3F)ccc21", "effect": -2.94}